According to publication PMC12674617:
These are yes or no findings as the source states them, for the method shown. Binding seen in cells or lysates may run through a third protein. Some entries that bind do so weakly or less than the wild type.

Chains of the proteins cited; added tags and fusions are not shown. Lines headed by an entry give the natural chain unless they say otherwise; changes in a name come on top.
UniProt Q8TD16: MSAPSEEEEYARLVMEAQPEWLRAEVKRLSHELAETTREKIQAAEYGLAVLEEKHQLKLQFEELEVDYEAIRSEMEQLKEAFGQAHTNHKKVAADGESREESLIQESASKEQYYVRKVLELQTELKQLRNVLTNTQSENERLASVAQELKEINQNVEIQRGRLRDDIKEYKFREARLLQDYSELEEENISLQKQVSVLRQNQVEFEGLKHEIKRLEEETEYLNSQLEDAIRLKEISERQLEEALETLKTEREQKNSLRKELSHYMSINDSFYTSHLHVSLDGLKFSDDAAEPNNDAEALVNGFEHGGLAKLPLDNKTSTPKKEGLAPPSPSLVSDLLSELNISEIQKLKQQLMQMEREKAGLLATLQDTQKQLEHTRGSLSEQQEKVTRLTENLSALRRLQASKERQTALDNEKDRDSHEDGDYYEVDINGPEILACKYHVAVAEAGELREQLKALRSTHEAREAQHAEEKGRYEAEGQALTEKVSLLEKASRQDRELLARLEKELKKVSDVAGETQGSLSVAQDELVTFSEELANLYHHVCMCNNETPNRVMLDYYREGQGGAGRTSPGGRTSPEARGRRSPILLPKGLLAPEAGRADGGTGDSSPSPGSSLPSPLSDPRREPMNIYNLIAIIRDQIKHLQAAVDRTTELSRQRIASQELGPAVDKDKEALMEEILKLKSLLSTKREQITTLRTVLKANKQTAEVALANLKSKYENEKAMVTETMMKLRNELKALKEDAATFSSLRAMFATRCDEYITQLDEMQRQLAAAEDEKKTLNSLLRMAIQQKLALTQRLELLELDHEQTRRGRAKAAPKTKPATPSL
UniProt Q14203: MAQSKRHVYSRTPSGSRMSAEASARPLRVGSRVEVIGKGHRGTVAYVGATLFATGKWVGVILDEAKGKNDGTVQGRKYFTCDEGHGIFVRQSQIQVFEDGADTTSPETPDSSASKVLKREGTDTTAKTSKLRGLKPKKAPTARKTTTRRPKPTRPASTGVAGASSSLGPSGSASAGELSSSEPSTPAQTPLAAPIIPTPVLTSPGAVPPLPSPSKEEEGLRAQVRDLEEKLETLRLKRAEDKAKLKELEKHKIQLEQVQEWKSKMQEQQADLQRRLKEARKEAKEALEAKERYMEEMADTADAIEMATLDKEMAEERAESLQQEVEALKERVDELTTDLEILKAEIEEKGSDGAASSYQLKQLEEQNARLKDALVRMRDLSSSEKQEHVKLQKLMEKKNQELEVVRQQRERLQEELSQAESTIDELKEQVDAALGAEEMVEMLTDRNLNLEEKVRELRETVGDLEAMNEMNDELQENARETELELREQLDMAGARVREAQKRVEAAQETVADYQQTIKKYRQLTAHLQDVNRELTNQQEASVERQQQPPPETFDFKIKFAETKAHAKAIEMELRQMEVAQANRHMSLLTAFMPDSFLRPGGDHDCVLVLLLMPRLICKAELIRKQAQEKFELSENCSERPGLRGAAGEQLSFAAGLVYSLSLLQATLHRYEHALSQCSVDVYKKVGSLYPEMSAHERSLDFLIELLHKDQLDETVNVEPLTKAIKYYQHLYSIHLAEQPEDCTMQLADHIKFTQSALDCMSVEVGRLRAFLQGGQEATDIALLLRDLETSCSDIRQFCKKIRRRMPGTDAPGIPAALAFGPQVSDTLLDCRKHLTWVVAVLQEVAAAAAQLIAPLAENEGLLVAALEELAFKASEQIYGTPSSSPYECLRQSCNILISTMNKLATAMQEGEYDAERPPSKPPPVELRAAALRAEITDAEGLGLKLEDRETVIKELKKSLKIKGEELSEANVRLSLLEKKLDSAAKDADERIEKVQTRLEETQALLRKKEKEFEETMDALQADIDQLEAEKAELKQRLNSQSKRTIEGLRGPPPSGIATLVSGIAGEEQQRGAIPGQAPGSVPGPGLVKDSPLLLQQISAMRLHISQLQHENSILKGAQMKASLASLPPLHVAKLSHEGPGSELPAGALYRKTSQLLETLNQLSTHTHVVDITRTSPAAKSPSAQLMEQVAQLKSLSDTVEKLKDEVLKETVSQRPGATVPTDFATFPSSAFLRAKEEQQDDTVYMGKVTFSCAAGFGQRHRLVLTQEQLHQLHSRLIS
UniProt O14576: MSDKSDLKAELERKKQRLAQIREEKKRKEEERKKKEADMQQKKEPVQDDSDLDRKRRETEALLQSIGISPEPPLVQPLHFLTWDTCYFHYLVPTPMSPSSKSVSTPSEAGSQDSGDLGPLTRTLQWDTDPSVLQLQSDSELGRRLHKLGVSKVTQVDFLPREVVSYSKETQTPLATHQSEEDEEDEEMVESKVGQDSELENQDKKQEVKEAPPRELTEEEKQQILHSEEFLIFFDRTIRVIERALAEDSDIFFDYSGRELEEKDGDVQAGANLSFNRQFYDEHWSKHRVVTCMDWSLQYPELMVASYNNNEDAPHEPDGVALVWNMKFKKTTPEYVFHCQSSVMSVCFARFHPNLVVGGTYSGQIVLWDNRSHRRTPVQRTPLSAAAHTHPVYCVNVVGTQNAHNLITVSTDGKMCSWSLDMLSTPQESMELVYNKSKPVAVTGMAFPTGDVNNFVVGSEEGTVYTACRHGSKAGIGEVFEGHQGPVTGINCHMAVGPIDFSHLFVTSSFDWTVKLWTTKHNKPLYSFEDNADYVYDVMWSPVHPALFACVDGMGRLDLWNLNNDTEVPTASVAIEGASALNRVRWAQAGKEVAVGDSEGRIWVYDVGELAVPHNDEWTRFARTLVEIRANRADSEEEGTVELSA
UniProt P20340: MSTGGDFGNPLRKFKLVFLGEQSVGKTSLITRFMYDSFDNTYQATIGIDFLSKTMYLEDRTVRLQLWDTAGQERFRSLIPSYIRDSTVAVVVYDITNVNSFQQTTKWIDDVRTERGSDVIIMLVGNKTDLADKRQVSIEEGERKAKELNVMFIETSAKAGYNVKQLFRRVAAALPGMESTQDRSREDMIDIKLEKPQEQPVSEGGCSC

How the values were obtained:
Assay in all cases: co-IP; HEK293 FLP-in T-Rex cells, Tet induction 1 µg/ml 24 hr; lysate in RIPA buffer, 1 mg protein, V5-Trap agarose beads 2 hr at 4 °C, four RIPA washes, western blot; also in cells treated with siRNA to endogenous BICD2
[1] = target: BICD2_N188T-mTrbo (human) (UniProt Q8TD16)
[2] = target: BICD2_R694C-mTrbo (human) (UniProt Q8TD16)
[3] = target: BICD2_R747C-mTrbo (human) (UniProt Q8TD16)
[4] = target: full-length BICD2 tagged on the C-terminus with mini-TurboID (BICD2-mTrbo) (human) (UniProt Q8TD16)

Measured: binding

Dynactin1/p150 Glued (DCTN1) (from UniProt Q14203 1-1278)
binds: [1] | [2] | [3] | [4]

Dynein intermediate chain (DYNC1I1) (from UniProt O14576 1-645)
binds: [1] | [2] | [3] | [4]

GTP-locked RAB6A (GFP-RAB6A Q72L) (from UniProt P20340 1-208)
binds: [4]
